Results taken from patent publication US6214969A (The Administrators of the Tulane Educational Fund, priority 1993, dated 2001).

Assay: general procedure: Boc solid-phase peptide synthesis; benzhydrylamine HCl resin, about 1 meq NH2/g (Advanced ChemTech)
Conditions: whole synthesis, TFA salt

Substance	crude mass (scale 0.5 mmole) [mg]	final HPLC purity (analytical HPLC) [%]	isolated mass (scale about 1 mmol) [mg]
[Ac-D-Nal(2)^1,D-Phe(4Cl)^2,D-Pal(3)^3,Arg^5,D-Lys^ 6,D-Ala^10 ]LHRH	540	–	–
[Ac-D-Nal (2)^1,D-Phe(4Cl)^2,D-Pal(3),Arg^5,D-Lys(A2 pr)^6,D-Ala^10 ]LHRH	–	>95	705
